Data as given in PubChem BioAssay AID1224830 (NIAID, 2016)

Test: 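Regulators of TLR4 signalling towards TNF-alpha in macrophage-like cells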 (primary screen)
Cells: human THP-1 monocytic leukaemia cells, TNF dual-luciferase reporter clone, PMA-differentiated to macrophage-like cells
Reagents: siRNA pool against human genes, 50 nM
Duration: LPS for 4 h, given about 3 days after siRNA transfection
Treatment: bacterial LPS (TLR4 ligand), 10 ng/ml
Measurement: 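TNF firefly reporter luminescence divided by renilla, normalised to the plate median, then turned into a robust z-score for each replicate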
Scale: TNF reporter robust z-score: higher = stronger TNF reporter response to LPS
Hit rule: 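Each well counts as active if its z-score is over 2.8 or under -1.5; controls are left without a call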
Shown is a random part of about 18,000 deposited reagents. Over the whole deposit, about 2,900 (16%) are marked active. 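Calls are made per well; low scores hint the gene aids the LPS response, high scores that it dampens it.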 Unmarked entries are inactive. Repeated entries: four replicate wells of each siRNA pool. Reagent sequences are not shown.

target gene,PubChem SID,TNF reporter robust z-score
ATP6V0E2 (ATPase H+ transporting V0 subunit e2),SID315462609,-0.78
ATP6V0E2 (ATPase H+ transporting V0 subunit e2),SID315462609,0.28
ATP6V0E2 (ATPase H+ transporting V0 subunit e2),SID315462609,-0.56
ATP6V0E2 (ATPase H+ transporting V0 subunit e2),SID315462609,0.59
MYO1D (myosin ID),SID315450123,1.67
MYO1D (myosin ID),SID315450123,2.32
MYO1D (myosin ID),SID315450123,1.68
MYO1D (myosin ID),SID315450123,1.78
GRB14 (growth factor receptor bound protein 14),SID315449033,-0.13
GRB14 (growth factor receptor bound protein 14),SID315449033,-0.45
GRB14 (growth factor receptor bound protein 14),SID315449033,0.34
UBE2T (ubiquitin conjugating enzyme E2 T),SID315456131,2.66
UBE2T (ubiquitin conjugating enzyme E2 T),SID315456131,2.88 (active)
UBE2T (ubiquitin conjugating enzyme E2 T),SID315456131,1.55
UBE2T (ubiquitin conjugating enzyme E2 T),SID315456131,0.75
ZNF585B (zinc finger protein 585B),SID315460995,-0.34
ZNF585B (zinc finger protein 585B),SID315460995,1.04
ZNF585B (zinc finger protein 585B),SID315460995,1.01
ZNF585B (zinc finger protein 585B),SID315460995,0.14
LOC100288884,SID315464581,-0.03
LOC100288884,SID315464581,-0.08
LOC100288884,SID315464581,0.01
LOC100288884,SID315464581,0.07
MINDY1 (MINDY lysine 48 deubiquitinase 1),SID315457862,-0.97
MINDY1 (MINDY lysine 48 deubiquitinase 1),SID315457862,-0.74
MINDY1 (MINDY lysine 48 deubiquitinase 1),SID315457862,-0.87
MINDY1 (MINDY lysine 48 deubiquitinase 1),SID315457862,-1.03
OCIAD2 (OCIA domain containing 2),SID315461919,0.12
OCIAD2 (OCIA domain containing 2),SID315461919,-0.54
OCIAD2 (OCIA domain containing 2),SID315461919,1.73
OCIAD2 (OCIA domain containing 2),SID315461919,-0.84
UBXN1 (UBX domain protein 1),SID315456421,-1.08
UBXN1 (UBX domain protein 1),SID315456421,-1.1
UBXN1 (UBX domain protein 1),SID315456421,0.4
UBXN1 (UBX domain protein 1),SID315456421,-0.22
LRRC36 (leucine rich repeat containing 36),SID315457561,0.9
LRRC36 (leucine rich repeat containing 36),SID315457561,0.8
LRRC36 (leucine rich repeat containing 36),SID315457561,2.16
PGAM5,SID315462941,-0.82
PGAM5,SID315462941,-0.97
PGAM5,SID315462941,-0.53
PGAM5,SID315462941,-1.19
TCEAL5 (transcription elongation factor A like 5),SID315464091,0.69
TCEAL5 (transcription elongation factor A like 5),SID315464091,1.8
TCEAL5 (transcription elongation factor A like 5),SID315464091,0.32
TCEAL5 (transcription elongation factor A like 5),SID315464091,1.42
DDX39A (DExD-box helicase 39A),SID315453910,-1.8 (active)
DDX39A (DExD-box helicase 39A),SID315453910,-1.24
DDX39A (DExD-box helicase 39A),SID315453910,-1.49
DDX39A (DExD-box helicase 39A),SID315453910,-0.92
NR4A2 (nuclear receptor subfamily 4 group A member 2),SID315450333,1.96
NR4A2 (nuclear receptor subfamily 4 group A member 2),SID315450333,1.08
NR4A2 (nuclear receptor subfamily 4 group A member 2),SID315450333,1.6
NR4A2 (nuclear receptor subfamily 4 group A member 2),SID315450333,0.57
LIN7C (lin-7 cell polarity scaffold C),SID315457598,-0.84
LIN7C (lin-7 cell polarity scaffold C),SID315457598,-0.23
LIN7C (lin-7 cell polarity scaffold C),SID315457598,-1.26
LIN7C (lin-7 cell polarity scaffold C),SID315457598,-0.26
PASD1 (PAS domain containing repressor 1),SID315462063,0.57
PASD1 (PAS domain containing repressor 1),SID315462063,0.75
PASD1 (PAS domain containing repressor 1),SID315462063,0.07
PASD1 (PAS domain containing repressor 1),SID315462063,-0.29
CDKL3 (cyclin dependent kinase like 3),SID315456594,1.46
CDKL3 (cyclin dependent kinase like 3),SID315456594,0.66
CDKL3 (cyclin dependent kinase like 3),SID315456594,1.19
CDKL3 (cyclin dependent kinase like 3),SID315456594,2.15
HAUS7 (HAUS augmin like complex subunit 7),SID315457680,-0.23
HAUS7 (HAUS augmin like complex subunit 7),SID315457680,0.06
HAUS7 (HAUS augmin like complex subunit 7),SID315457680,0.4
HAUS7 (HAUS augmin like complex subunit 7),SID315457680,-0.13
PCBP4 (poly(rC) binding protein 4),SID315458243,1.16
PCBP4 (poly(rC) binding protein 4),SID315458243,-0.45
PCBP4 (poly(rC) binding protein 4),SID315458243,1.39
PCBP4 (poly(rC) binding protein 4),SID315458243,1.12
ZBTB17 (zinc finger and BTB domain containing 17),SID315452257,0.74
ZBTB17 (zinc finger and BTB domain containing 17),SID315452257,-0.56
ZBTB17 (zinc finger and BTB domain containing 17),SID315452257,-0.94
NIT1 (nitrilase 1),SID315450253,1
NIT1 (nitrilase 1),SID315450253,1.96
NIT1 (nitrilase 1),SID315450253,0.6
NIT1 (nitrilase 1),SID315450253,0.86
JPT2 (Jupiter microtubule associated homolog 2),SID315460866,0.43
JPT2 (Jupiter microtubule associated homolog 2),SID315460866,-0.35
JPT2 (Jupiter microtubule associated homolog 2),SID315460866,0.88
JPT2 (Jupiter microtubule associated homolog 2),SID315460866,0.63
SLC9A2,SID315451486,0.09
SLC9A2,SID315451486,-0.93
SLC9A2,SID315451486,-1.51 (active)
SLC9A2,SID315451486,-0.82
TSPOAP1 (TSPO associated protein 1),SID315453158,-1.74 (active)
TSPOAP1 (TSPO associated protein 1),SID315453158,-1.52 (active)
TSPOAP1 (TSPO associated protein 1),SID315453158,-1.56 (active)
TSPOAP1 (TSPO associated protein 1),SID315453158,-1.72 (active)
ALG5 (ALG5 dolichyl-phosphate beta-glucosyltransferase),SID315456190,1.15
ALG5 (ALG5 dolichyl-phosphate beta-glucosyltransferase),SID315456190,4.28 (active)
ALG5 (ALG5 dolichyl-phosphate beta-glucosyltransferase),SID315456190,3.52 (active)
ALG5 (ALG5 dolichyl-phosphate beta-glucosyltransferase),SID315456190,2.53
PPEF2 (protein phosphatase with EF-hand domain 2),SID315450724,0.12
PPEF2 (protein phosphatase with EF-hand domain 2),SID315450724,-1.07
PPEF2 (protein phosphatase with EF-hand domain 2),SID315450724,0.19
PPEF2 (protein phosphatase with EF-hand domain 2),SID315450724,-1.1
LRRC14B (leucine rich repeat containing 14B),SID315464549,-0.13
LRRC14B (leucine rich repeat containing 14B),SID315464549,0.53
LRRC14B (leucine rich repeat containing 14B),SID315464549,1.24
LRRC14B (leucine rich repeat containing 14B),SID315464549,-0.83
C4A (complement C4A (Chido/Rodgers blood group)),SID315447614,-0.91
C4A (complement C4A (Chido/Rodgers blood group)),SID315447614,-0.73
C4A (complement C4A (Chido/Rodgers blood group)),SID315447614,-1.53 (active)
C4A (complement C4A (Chido/Rodgers blood group)),SID315447614,-0.65
OR2AT4 (olfactory receptor family 2 subfamily AT member 4),SID315464111,-1.08
OR2AT4 (olfactory receptor family 2 subfamily AT member 4),SID315464111,-0.88
OR2AT4 (olfactory receptor family 2 subfamily AT member 4),SID315464111,-1.32
OR2AT4 (olfactory receptor family 2 subfamily AT member 4),SID315464111,-0.55
"PRSS45P (serine protease 45, pseudogene)",SID315464391,1.82
"PRSS45P (serine protease 45, pseudogene)",SID315464391,2.03
"PRSS45P (serine protease 45, pseudogene)",SID315464391,0.14
"PRSS45P (serine protease 45, pseudogene)",SID315464391,1.28
POU2AF1 (POU class 2 homeobox associating factor 1),SID315450707,0.37
POU2AF1 (POU class 2 homeobox associating factor 1),SID315450707,0.52
POU2AF1 (POU class 2 homeobox associating factor 1),SID315450707,1.5
POU2AF1 (POU class 2 homeobox associating factor 1),SID315450707,1.25
SLC26A6,SID315459069,-0.09
SLC26A6,SID315459069,-0.13
SLC26A6,SID315459069,-1.05
SLC26A6,SID315459069,2.06
ABCA5 (ATP binding cassette subfamily A member 5),SID315455256,-1.51 (active)
ABCA5 (ATP binding cassette subfamily A member 5),SID315455256,-0.24
ABCA5 (ATP binding cassette subfamily A member 5),SID315455256,0.51
ABCA5 (ATP binding cassette subfamily A member 5),SID315455256,-0.31
CEACAM4 (CEA cell adhesion molecule 4),SID315447895,-0.25
CEACAM4 (CEA cell adhesion molecule 4),SID315447895,-1.29
CEACAM4 (CEA cell adhesion molecule 4),SID315447895,-0.27
CEACAM4 (CEA cell adhesion molecule 4),SID315447895,-0.83
TRAK1 (trafficking kinesin protein 1),SID315454864,1.68
TRAK1 (trafficking kinesin protein 1),SID315454864,0.9
TRAK1 (trafficking kinesin protein 1),SID315454864,1.98
TRAK1 (trafficking kinesin protein 1),SID315454864,1.45
HSBP1 (heat shock factor binding protein 1),SID315449323,-0.39
HSBP1 (heat shock factor binding protein 1),SID315449323,-0.42
HSBP1 (heat shock factor binding protein 1),SID315449323,-0.92
HSBP1 (heat shock factor binding protein 1),SID315449323,-0.95
